PubChem BioAssay AID504791 – Drosophila RNAi Screening Center, 2011

Screen: 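Genes whose knock-down strengthens or weakens small-RNA reporter silencing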 (primary screen)
System: Drosophila S2-derived reporter cells
Knock-down reagent: long dsRNA against Drosophila genes, about 150-250 ng dsRNA per well (siRNA assay); about 80-120 ng (miRNA assay)
Duration: about 5 days (siRNA assay); about 4 days (miRNA assay)
Conditions: copper sulfate induction of reporters: 25 µM (siRNA assay); 200 mM stated (miRNA assay), 1-2 days before reading
Read-out: 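Dual luciferase assay: Renilla to firefly signal ratio in each well, scaled to the mean ratio of its plate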
Active means: 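a well was a first-pass pick when its plate-scaled ratio rose above 1.5 (siRNA assay) or 1.6 (miRNA assay), or dropped below 0.6; a gene counted only if two separate dsRNAs agreed on retest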
The screen tested about 23,000 reagents; this is an unselected part of those with a known target gene and a result. Of all reagents, 199 (0.86%) were called active. 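Plate-scaled ratios behind the calls are not deposited; printed light signals are raw; many rows marked increased or decreased are still called inactive.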 No sequences are given here. Not given: the direction of the score.

predicted target | DRSC id | stable siRNA reporter change | stable assay Renilla, run 1 (luminescence) | stable assay firefly, run 1 (luminescence) | activity call
kuk (kugelkern) | DRSC15730 | – | 7871 | 3.17e5 | inactive
Ilp5 (Insulin-like peptide 5) | DRSC08998 | – | 4810 | 4.32e5 | inactive
CG31760 | DRSC02590 | – | 6231 | 3.16e5 | inactive
CG14069 | DRSC02372 | – | 6883 | 4.12e5 | inactive
FMRFaR (FMRFamide Receptor) | DRSC08555 | – | 6480 | 2.98e5 | inactive
CG32795 | DRSC18609 | – | 5951 | 4.12e5 | inactive
CG32795 | DRSC18610 | – | 5962 | 3.50e5 | inactive
ACOX1 (acyl-CoA oxidase 1) | DRSC05941 | – | 11821 | 3.79e5 | inactive
CG12863 | DRSC06203 | – | 5920 | 3.99e5 | inactive
CG42673 | DRSC08989 | – | 5247 | 3.39e5 | inactive
CG42673 | DRSC08991 | – | 2223 | 1.80e5 | inactive
CG42673 | DRSC10177 | – | 4894 | 3.38e5 | inactive
CG42673 | DRSC10264 | – | 7580 | 4.58e5 | inactive
CG42673 | DRSC10353 | – | 7146 | 4.14e5 | inactive
CG42673 | DRSC10354 | – | 6079 | 4.13e5 | inactive
rush (rush hour) | DRSC18568 | reporter ratio lowered past the hit cutoff | 5947 | 5.44e5 | inactive
CG31007 | DRSC14029 | – | 6583 | 2.87e5 | inactive
Prp5 (pre-mRNA processing factor 5) | DRSC19975 | – | 5147 | 5.41e5 | inactive
Snx21 (Sorting nexin 21) | DRSC00564 | – | 11884 | 4.00e5 | inactive
sqh (spaghetti squash) | DRSC18837 | – | 7875 | 3.26e5 | inactive
beta3GalTII (beta-1,3-Galactosyltransferase II) | DRSC07253 | – | 6646 | 3.74e5 | inactive
CG13739 | DRSC06410 | – | 4767 | 1.99e5 | inactive
CG13739 | DRSC23200 | – | 1056 | 52245 | inactive
CG5326 | DRSC13568 | – | 4979 | 3.28e5 | inactive
CG5326 | DRSC15770 | – | 9209 | 3.74e5 | inactive
ebd1 (earthbound 1) | DRSC08565 | – | 10397 | 5.18e5 | inactive
CG11698 | DRSC14355 | – | 4955 | 5.41e5 | inactive
CG7140 | DRSC11799 | – | 7590 | 4.25e5 | inactive
osk (oskar) | DRSC17023 | – | 8078 | 3.39e5 | inactive
Ir67a (Ionotropic receptor 67a) | DRSC09897 | – | 5331 | 3.30e5 | inactive
Ir52d (Ionotropic receptor 52d) | DRSC06264 | – | 6690 | 4.30e5 | inactive
CG30484 | DRSC05457 | – | 5623 | 3.52e5 | inactive
Rab40 | DRSC19820 | – | 5291 | 4.68e5 | inactive
Cwc25 | DRSC00545 | – | 6990 | 4.61e5 | inactive

4 entries already listed, ordered by “stable assay Renilla, run 1 (luminescence)”, descending.
predicted target | DRSC id | stable siRNA reporter change | stable assay Renilla, run 1 (luminescence) | stable assay firefly, run 1 (luminescence) | activity call
CG42673 | DRSC10264 | – | 7580 | 4.58e5 | inactive
CG42673 | DRSC10353 | – | 7146 | 4.14e5 | inactive
CG42673 | DRSC10354 | – | 6079 | 4.13e5 | inactive
rush (rush hour) | DRSC18568 | reporter ratio lowered past the hit cutoff | 5947 | 5.44e5 | inactive
